In assay [1] the target is Hsp70 (human (endogenous in T24)). As to the kind of experiment: affinity purification with mass spectrometry; co-immunoprecipitation with Hsp70 antibody on Dynabeads Protein G from lysate of T24 cells treated with VER155008 for 48 h; 10 min incubation; SDS-PAGE, silver stain, one band excised and identified by LC-MS/MS.
Assay [2] shares this target. As to the kind of experiment: condition: only lysate of cells not treated with VER155008 (-VER, DMSO); affinity purification with mass spectrometry; co-immunoprecipitation with Hsp70 antibody on Dynabeads Protein G from lysate of T24 cells treated with DMSO (no VER155008) for 48 h; 10 min incubation; SDS-PAGE, silver stain; band judged by eye on the gel.

No constants are given. Whether binding was seen depends on the method and setting. In cells and extracts the contact can be indirect. These calls come from enrichment with a bait or labelling near it, and not all partners need be listed. For some assays here: A no says only that the protein was not detected with the bait.

B1: keratin 9 (protein, UniProt P35527 1-623)
chain: MSCRQFSSSYLSRSGGGGGGGLGSGGSIRSSYSRFSSSGGGGGGGRFSSSSGYGGGSSRVCGRGGGGSFGYSYGGGSGGGFSASSLGGGFGGGSRGFGGASGGGYSSSGGFGGGFGGGSGGGFGGGYGSGFGGFGGFGGGAGGGDGGILTANEKSTMQELNSRLASYLDKVQALEEANNDLENKIQDWYDKKGPAAIQKNYSPYYNTIDDLKDQIVDLTVGNNKTLLDIDNTRMTLDDFRIKFEMEQNLRQGVDADINGLRQVLDNLTMEKSDLEMQYETLQEELMALKKNHKEEMSQLTGQNSGDVNVEINVAPGKDLTKTLNDMRQEYEQLIAKNRKDIENQYETQITQIEHEVSSSGQEVQSSAKEVTQLRHGVQELEIELQSQLSKKAALEKSLEDTKNRYCGQLQMIQEQISNLEAQITDVRQEIECQNQEYSLLLSIKMRLEKEIETYHNLLEGGQEDFESSGAGKIGLGGRGGSGGSYGRGSRGGSGGSYGGGGSGGGYGGGSGSRGGSGGSYGGGSGSGGGSGGGYGGGSGGGHSGGSGGGHSGGSGGNYGGGSGSGGGSGGGYGGGSGSRGGSGGSHGGGSGFGGESGGSYGGGEEASGSGGGYGGGSGKSSHS
For B1, the binding entry is on record as “binds” in assay [1] and “no binding” in assay [2].

The values are drawn from paper PMC6111075.
